Data taken from article PMC8777276.
No constants are given. Whether binding was seen depends on the method and setting. Binding seen in cells or lysates may run through a third protein. Some binding calls cover weakened binding; strength is not graded here.

Amino acid sequences for entries named in this document (tags omitted).
UniProt Q8BVE8: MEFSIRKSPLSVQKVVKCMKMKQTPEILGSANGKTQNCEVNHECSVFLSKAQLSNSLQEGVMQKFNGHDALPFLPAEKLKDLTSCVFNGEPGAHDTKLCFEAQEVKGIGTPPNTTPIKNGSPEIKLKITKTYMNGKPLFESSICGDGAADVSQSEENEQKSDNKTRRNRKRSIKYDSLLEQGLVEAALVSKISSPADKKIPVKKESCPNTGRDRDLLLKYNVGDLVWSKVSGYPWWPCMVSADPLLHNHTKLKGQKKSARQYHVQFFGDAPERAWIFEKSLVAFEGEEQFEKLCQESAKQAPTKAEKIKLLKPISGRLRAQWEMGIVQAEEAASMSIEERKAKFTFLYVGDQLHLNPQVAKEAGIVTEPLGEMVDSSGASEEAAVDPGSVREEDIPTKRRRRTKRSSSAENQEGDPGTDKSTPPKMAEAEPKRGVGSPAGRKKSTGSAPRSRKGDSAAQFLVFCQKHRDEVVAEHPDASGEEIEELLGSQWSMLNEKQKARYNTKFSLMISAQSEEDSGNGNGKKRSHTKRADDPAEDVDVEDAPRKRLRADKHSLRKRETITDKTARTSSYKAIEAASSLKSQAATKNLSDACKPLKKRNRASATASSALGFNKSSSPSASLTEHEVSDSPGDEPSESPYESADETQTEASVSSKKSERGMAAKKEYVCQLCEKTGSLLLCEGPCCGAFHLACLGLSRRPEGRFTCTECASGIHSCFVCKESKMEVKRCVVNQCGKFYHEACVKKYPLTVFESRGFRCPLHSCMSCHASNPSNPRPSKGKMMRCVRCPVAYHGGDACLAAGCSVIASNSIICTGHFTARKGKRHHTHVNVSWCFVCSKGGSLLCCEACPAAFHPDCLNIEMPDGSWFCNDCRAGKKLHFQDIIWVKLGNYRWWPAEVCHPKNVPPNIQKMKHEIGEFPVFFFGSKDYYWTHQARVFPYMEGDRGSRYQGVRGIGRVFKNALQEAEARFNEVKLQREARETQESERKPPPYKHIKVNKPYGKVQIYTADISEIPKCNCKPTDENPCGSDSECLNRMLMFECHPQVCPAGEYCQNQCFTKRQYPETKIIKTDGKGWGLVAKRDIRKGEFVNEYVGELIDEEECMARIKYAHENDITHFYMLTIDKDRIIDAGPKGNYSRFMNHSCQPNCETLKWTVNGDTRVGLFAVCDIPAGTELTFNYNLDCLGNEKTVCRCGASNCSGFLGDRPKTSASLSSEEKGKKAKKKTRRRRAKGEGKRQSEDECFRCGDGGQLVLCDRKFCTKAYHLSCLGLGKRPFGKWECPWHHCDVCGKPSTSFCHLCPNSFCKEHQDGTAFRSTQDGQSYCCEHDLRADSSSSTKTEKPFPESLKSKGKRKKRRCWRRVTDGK

Key:
[1] = target: methyltransferase NSD2 (mouse (endogenous in BMDCs)) (UniProt Q8BVE8); assay: co-IP; endogenous proteins in lysate of WT mouse BMDCs; NP-40 lysis buffer, Dynabeads pre-coupled with 3 ug antibody, 1 h at room temperature; PP2Cδ^-/- DCs as control
[2] = target: NSD2, expressed from a plasmid (UniProt Q8BVE8); assay: co-IP; intact or truncated PP2Cδ constructs expressed from plasmids, NSD2; cells not given
[3] = target: NSD2, expressed from a plasmid (UniProt Q8BVE8); assay: co-IP; 293T cells transfected with PP2Cδ- and NSD2-expressing plasmids; NP-40 lysis buffer, Dynabeads pre-coupled with antibody

| Binder | binding [1] | binding [2] | binding [3] |
| --- | --- | --- | --- |
| Protein phosphatase 2C delta (PP2Cδ) (enzyme, UniProt Q9QZ67 1-598) MAGLYSLGVSVFSDQGGRKYMEDVTQIVVEPEPAAEDKPAPVPRRALGLPATPTLAGVGPSEKGPAAARDPAPDAAASLPAGRCCRRRSSVAFFAVCDGHGGREAAQFAREHLWGFIKKQKGFTSSEPAKVCAAIRKGFLACHLAMWKKLAEWPKTMTGLPSTSGTTASVVIIRGMKMYVAHVGDSGVVLGIQDDPKDDFVRAVEVTQDHKPELPKERERIEGLGGSVMNKSGVNRVVWKRPRLTHSGPVRRSTVIDQIPFLAVARALGDLWSYDFFSGKFVVSPEPDTSVHTLDPRKHKYIILGSDGLWNMVPPQDAISMCQDQEEKKYLMGEQGQSCAKMLVNRALGRWRQRMLRADNTSAIVICISPEVDNQGNFTNEDELFLNLTDSPTYNSQETCVMTSSPSSTPPIKSPEEDAWPRLSSKDHIPALVRSNAFSEKFLEVPAEIARGNIQTVVMTSKDSETLEENCPKALTLRIHDSLNNTLSVGLIPTNSTNTIMDQKNLKMSTPGQMKAQEVERTPPANFKRTLEESNSGPLMKKHRRNGLSRSSGAQASSLPTASQRRHSVKLTLRRRLRGQRKMGNPLLHQHRKTVCVC | binds | – | – |
| PP2Cδ, full-length (intact) construct (enzyme, UniProt Q9QZ67 1-598) MAGLYSLGVSVFSDQGGRKYMEDVTQIVVEPEPAAEDKPAPVPRRALGLPATPTLAGVGPSEKGPAAARDPAPDAAASLPAGRCCRRRSSVAFFAVCDGHGGREAAQFAREHLWGFIKKQKGFTSSEPAKVCAAIRKGFLACHLAMWKKLAEWPKTMTGLPSTSGTTASVVIIRGMKMYVAHVGDSGVVLGIQDDPKDDFVRAVEVTQDHKPELPKERERIEGLGGSVMNKSGVNRVVWKRPRLTHSGPVRRSTVIDQIPFLAVARALGDLWSYDFFSGKFVVSPEPDTSVHTLDPRKHKYIILGSDGLWNMVPPQDAISMCQDQEEKKYLMGEQGQSCAKMLVNRALGRWRQRMLRADNTSAIVICISPEVDNQGNFTNEDELFLNLTDSPTYNSQETCVMTSSPSSTPPIKSPEEDAWPRLSSKDHIPALVRSNAFSEKFLEVPAEIARGNIQTVVMTSKDSETLEENCPKALTLRIHDSLNNTLSVGLIPTNSTNTIMDQKNLKMSTPGQMKAQEVERTPPANFKRTLEESNSGPLMKKHRRNGLSRSSGAQASSLPTASQRRHSVKLTLRRRLRGQRKMGNPLLHQHRKTVCVC | – | binds | binds |
| PP2Cδ truncate lacking B domain (Δ77-361) (domain or fragment, UniProt Q9QZ67) MAGLYSLGVSVFSDQGGRKYMEDVTQIVVEPEPAAEDKPAPVPRRALGLPATPTLAGVGPSEKGPAAARDPAPDAASAIVICISPEVDNQGNFTNEDELFLNLTDSPTYNSQETCVMTSSPSSTPPIKSPEEDAWPRLSSKDHIPALVRSNAFSEKFLEVPAEIARGNIQTVVMTSKDSETLEENCPKALTLRIHDSLNNTLSVGLIPTNSTNTIMDQKNLKMSTPGQMKAQEVERTPPANFKRTLEESNSGPLMKKHRRNGLSRSSGAQASSLPTASQRRHSVKLTLRRRLRGQRKMGNPLLHQHRKTVCVC | – | binds | – |
